Article PMC6944463
These are yes or no findings as the source states them, for the method shown. In cells and extracts the contact can be indirect. A result given as binding can be weak or reduced; the word gives no strength.

Sequences of proteins named here, by UniProt entry; tags and fusion partners are left off. A change or cut given only in a name is not applied to a line headed by its entry.
UniProt Q96EK4: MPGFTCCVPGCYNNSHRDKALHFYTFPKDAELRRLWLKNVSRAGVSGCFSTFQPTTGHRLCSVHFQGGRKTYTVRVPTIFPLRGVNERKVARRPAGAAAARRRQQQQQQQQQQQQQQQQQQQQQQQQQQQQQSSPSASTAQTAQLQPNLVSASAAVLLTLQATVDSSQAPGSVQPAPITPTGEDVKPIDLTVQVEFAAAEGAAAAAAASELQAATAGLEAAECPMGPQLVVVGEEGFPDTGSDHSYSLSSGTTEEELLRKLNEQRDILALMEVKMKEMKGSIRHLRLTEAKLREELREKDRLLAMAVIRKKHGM

Target: THAP11 (Flag- or HA-epitope-tagged) (human) (UniProt Q96EK4)
Assay: co-IP; HEK-293 cells co-transfected with Flag- and HA-tagged THAP constructs; whole-cell lysates, anti-HA immunoprecipitation, immunoblot with anti-HA and anti-Flag

- binding: binds
Substance: THAP11 HBM mutant (epitope-tagged) (from UniProt Q96EK4)
